Experimental findings from article PMC7819943, “Rice protein-binding microarrays: a tool to detect cis-acting elements near promoter regions in rice” are described below.

The list shows a part of the results.

This experiment deals with T1, OsSMF1 (Oryza sativa, UniProt Q6ZLB0 1-436).
T1 sequence: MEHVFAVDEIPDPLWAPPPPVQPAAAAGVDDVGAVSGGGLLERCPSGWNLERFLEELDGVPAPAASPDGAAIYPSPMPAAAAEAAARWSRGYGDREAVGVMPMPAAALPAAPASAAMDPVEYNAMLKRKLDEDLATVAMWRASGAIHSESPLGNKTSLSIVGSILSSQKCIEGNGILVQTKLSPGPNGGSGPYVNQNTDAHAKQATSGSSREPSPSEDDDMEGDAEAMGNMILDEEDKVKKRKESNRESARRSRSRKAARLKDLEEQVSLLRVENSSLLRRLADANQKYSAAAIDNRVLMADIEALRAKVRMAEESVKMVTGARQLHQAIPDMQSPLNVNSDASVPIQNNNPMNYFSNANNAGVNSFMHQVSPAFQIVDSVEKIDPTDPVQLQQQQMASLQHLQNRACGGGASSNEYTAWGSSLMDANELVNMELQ
Briefly: protein-binding microarray (RPBM); PBS, 2% BSA, 51.3 ng/ul salmon testes DNA, 50 uM zinc acetate, 200 nM TF, 25 C, 1 h; high values mean tight binding. The note with it: protein: recombinant; tags: N-terminal polyhistidine and DsRed monomer fusion (pET32a); chain copies: 2; label: CyDye5-dUTP incorporated in the synthesized complementary strand; 3' TTTTT single-stranded linker to array surface; dsDNA, one strand shown. An outline of the steps:
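Ni–NTA purification followed expression in E. coli BL21-CodonPlus of transcription factors fused N-terminally to a polyhistidine tag and DsRed. At 200 nM in PBS with 2% BSA, salmon testes DNA and 50 µM zinc acetate, the protein was incubated for 1 h at 25 °C with a custom Agilent array that had been primer-extended with Cy5-dUTP and blocked with 2% BSA. After washing, the array was read on an Axon 4000B scanner. The binding signal is per-feature fluorescence intensity in arbitrary units.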
As to “TGGTATATATGCGTGTACACTTACGCCTGACCTTCTGACTCGGAGTCACCTAGTGCAG”, the binding signal was 5640 fluorescence intensity (a.u.).

For the sequence “CAGCCGCTGACTGTTAGTGGATTCTAGTAGTAGTTGTTTACGGAGTCACCTAGTGCAG”, the binding signal is 4210 fluorescence intensity (a.u.).

“TACTACTTCCGATCAGAGCCATACCAATGCCACGACACGACGGAGTCACCTAGTGCAG”: the binding signal is 4090 fluorescence intensity (a.u.).

In the case of “GGAGATAGAGAGAAGAGGTAGTGATGATGACGTGTGGGTCCGGAGTCACCTAGTGCAG”, the binding signal was 9120 fluorescence intensity (a.u.).

“ATATATATAAGCTTTACCTTGCATTCCAAGCTTCGATCGACGGAGTCACCTAGTGCAG”: the binding signal was 3160 fluorescence intensity (a.u.).

Take “CGAGAGCCCAGAAGCAGCAGCGATGTGTTGGATAAATCTGCGGAGTCACCTAGTGCAG”: the binding signal was 39000 fluorescence intensity (a.u.).

With “TCGGTGCAAATGACATTAGCGCATCTCCATTCACATCAGTCGGAGTCACCTAGTGCAG”, the binding signal is 3220 fluorescence intensity (a.u.).

Take “CGGCGGCGACAGGCGCGCCTGCGAGCTCGCCGTCGTGGCGCGGAGTCACCTAGTGCAG”: the binding signal was 3980 fluorescence intensity (a.u.).

For “CGAGAGCGAGAGCCGTCTTGCCGGTGGCGGGCGGGCCGGCCGGAGTCACCTAGTGCAG”, the binding signal is 32300 fluorescence intensity (a.u.).

For the sequence “TCTCCCAGGCCACCATCGGCGTCCACATCCCGCCGTCCGCCGGAGTCACCTAGTGCAG”, the binding signal was 3510 fluorescence intensity (a.u.).

In the case of “ATGCGTGCGCTCAGCCCATTCTGCTTGTATTTTCAGTACACGGAGTCACCTAGTGCAG”, the binding signal was 3650 fluorescence intensity (a.u.).

In the case of “CGTCAGCTTGTGCGCCGTCACCACGTAGTTCCACGGCCTCCGGAGTCACCTAGTGCAG”, the binding signal was 3490 fluorescence intensity (a.u.).

Take “ATATATGTAGGAGAATGACAGAGTACTGGAGTCATCTACTCGGAGTCACCTAGTGCAG”: the binding signal is 3510 fluorescence intensity (a.u.).

In the case of “ATACGATAAACCATGTGGATCTAGAATGTTGTAAAATTAACGGAGTCACCTAGTGCAG”, the binding signal was 36400 fluorescence intensity (a.u.).

In the case of “TGAATGTCCCACCTAAGAAGACGCCAGACAGCTCTGAACACGGAGTCACCTAGTGCAG”, the binding signal is 17100 fluorescence intensity (a.u.).

For “CAGAACGTCTGTGTATGTGTACATGTACATGTGTGCACTCCGGAGTCACCTAGTGCAG”, the binding signal was 3550 fluorescence intensity (a.u.).

For the sequence “ACGGAGAATTGGCGATCTCCATAACTCCATGTCACCTCTACGGAGTCACCTAGTGCAG”, the binding signal was 5010 fluorescence intensity (a.u.).

For “TACACTTTATCCAAATTCGTAGTTTTAGGATGAGTCAGGTCGGAGTCACCTAGTGCAG”, the binding signal was 9060 fluorescence intensity (a.u.).

For the sequence “GCGTGCATATTTTGAGATGTGCTACTCTACTGCGTCAGCACGGAGTCACCTAGTGCAG”, the binding signal is 6620 fluorescence intensity (a.u.).

Turning to “CGATGTATATATGTCAGAATCAGATGAGTTGTACAGTGAACGGAGTCACCTAGTGCAG”, the binding signal is 3510 fluorescence intensity (a.u.).

On to “AATCCTCCATGACTCGAGTCTCTCCTCGGATTAGGATCTACGGAGTCACCTAGTGCAG”, for which the binding signal is 4740 fluorescence intensity (a.u.).

With “TAATGAACAAAGTCAGCTTCCTGTTCTGGACGACACTGTTCGGAGTCACCTAGTGCAG”, the binding signal was 7970 fluorescence intensity (a.u.).

With “GAGCACAATAGACAACACACCATCACTTACGCAGTTACACCGGAGTCACCTAGTGCAG”, the binding signal was 3470 fluorescence intensity (a.u.).

Turning to “GAATCAACTGGTGGGGTTCACTAGAGACCATGCAATAGTTCGGAGTCACCTAGTGCAG”, the binding signal was 3150 fluorescence intensity (a.u.).

In the case of “TTATGATGTAATTAGGCTCAAAAGATTCGTCTCGCAATTTCGGAGTCACCTAGTGCAG”, the binding signal is 44200 fluorescence intensity (a.u.).

Consider “GCTGGCGCTGGTGACGGCATCCATCCAAGAACTGCCTCCTCGGAGTCACCTAGTGCAG”, for which the binding signal was 4210 fluorescence intensity (a.u.).

For the sequence “CTAACTGGGTATGGATGATAGGTCACGCCGTCACGTGCCACGGAGTCACCTAGTGCAG”, the binding signal is 4990 fluorescence intensity (a.u.).

For the sequence “TGGACCAACAGCCACTGACACGGTGGGCCCCACGGAGACGCGGAGTCACCTAGTGCAG”, the binding signal is 3590 fluorescence intensity (a.u.).

Consider “AGGCGATCATTGCGTACGTTGCGCGCACCGCCTCGCCCTTCGGAGTCACCTAGTGCAG”, for which the binding signal was 3420 fluorescence intensity (a.u.).

As to “TCAGTCTGCATTCATCGATGACATCATGGATGATGCATTGCGGAGTCACCTAGTGCAG”, the binding signal was 7950 fluorescence intensity (a.u.).

Regarding “TCCTTCTTCTTCTCCTTCCTCACTGCAACACTCTTCGGGGCGGAGTCACCTAGTGCAG”, the binding signal was 38900 fluorescence intensity (a.u.).

On to “TTTGAAGCATTGCTATTCATGACGTACCAACTCAGCACTCCGGAGTCACCTAGTGCAG”, for which the binding signal was 7590 fluorescence intensity (a.u.).

Consider “AAATCCGCCCTCGCCTCGCCCCGATCGATCCCCTCGATTCCGGAGTCACCTAGTGCAG”, for which the binding signal is 3810 fluorescence intensity (a.u.).

Take “ACGGATCTATAGAGTAATGACCGGTGTCAGGCGACACCGACGGAGTCACCTAGTGCAG”: the binding signal was 3750 fluorescence intensity (a.u.).

Consider “TTGAGCTAGCCTGACTGTCAGTAACAGAACCAGTGATCTGCGGAGTCACCTAGTGCAG”, for which the binding signal is 3520 fluorescence intensity (a.u.).

Consider “CTCGCGGCAACCATGCATCAAATTTTAAATGCCCCAATATCGGAGTCACCTAGTGCAG”, for which the binding signal is 9450 fluorescence intensity (a.u.).

In the case of “CCTCGAAAGGCCCATCACGCGTCTTCCTTACGTGGGCCGTCGGAGTCACCTAGTGCAG”, the binding signal is 4260 fluorescence intensity (a.u.).

For “ATGTTATGTGTAGGTTTTGCTTAGTCAGTCACACAGATTTCGGAGTCACCTAGTGCAG”, the binding signal was 6630 fluorescence intensity (a.u.).

For “CGGTCTAGACTGGAGTTGGCACGAAATGCGGTGCTTCCTGCGGAGTCACCTAGTGCAG”, the binding signal was 3330 fluorescence intensity (a.u.).

For “AGAAGGGATAAAGAGAGGATGACATGTGGGACCCACATGTCGGAGTCACCTAGTGCAG”, the binding signal is 4130 fluorescence intensity (a.u.).

As to “ATATGAAGTGACTAATATGCACTCTTGGCATAGTTAATACCGGAGTCACCTAGTGCAG”, the binding signal is 3280 fluorescence intensity (a.u.).

Consider “GCCCTGATCATACAGAGTATGACGTTATAAGAATGCAGTGCGGAGTCACCTAGTGCAG”, for which the binding signal was 4940 fluorescence intensity (a.u.).
